No constants are given. Whether binding was seen depends on the method and setting. In cells and extracts the contact can be indirect. These calls come from enrichment with a bait or labelling near it, and not all partners need be listed. Where a sequence is shown, tags or fusion partners need not be part of it.

By UniProt entry, the sequences of proteins in these tests, tags left out.
UniProt O60934: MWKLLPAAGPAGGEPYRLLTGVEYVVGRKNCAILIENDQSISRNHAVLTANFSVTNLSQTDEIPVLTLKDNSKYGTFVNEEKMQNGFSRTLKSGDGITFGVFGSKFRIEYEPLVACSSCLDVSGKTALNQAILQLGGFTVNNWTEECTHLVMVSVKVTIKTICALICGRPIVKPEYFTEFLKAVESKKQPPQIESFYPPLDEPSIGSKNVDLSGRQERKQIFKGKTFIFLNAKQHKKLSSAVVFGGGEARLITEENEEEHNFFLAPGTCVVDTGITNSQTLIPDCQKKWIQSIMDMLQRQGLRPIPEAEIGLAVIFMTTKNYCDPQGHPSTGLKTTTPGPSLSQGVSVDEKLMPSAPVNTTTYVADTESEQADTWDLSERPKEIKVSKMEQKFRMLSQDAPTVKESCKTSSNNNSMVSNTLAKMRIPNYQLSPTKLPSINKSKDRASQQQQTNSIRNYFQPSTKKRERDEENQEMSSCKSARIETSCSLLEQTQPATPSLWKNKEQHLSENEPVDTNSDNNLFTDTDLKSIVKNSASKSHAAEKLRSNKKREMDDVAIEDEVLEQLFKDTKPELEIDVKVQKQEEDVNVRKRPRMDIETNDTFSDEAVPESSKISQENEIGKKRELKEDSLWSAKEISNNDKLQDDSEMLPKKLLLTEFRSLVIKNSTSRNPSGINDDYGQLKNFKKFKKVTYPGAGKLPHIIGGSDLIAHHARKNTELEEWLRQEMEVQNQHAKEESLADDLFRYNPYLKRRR
UniProt Q92878: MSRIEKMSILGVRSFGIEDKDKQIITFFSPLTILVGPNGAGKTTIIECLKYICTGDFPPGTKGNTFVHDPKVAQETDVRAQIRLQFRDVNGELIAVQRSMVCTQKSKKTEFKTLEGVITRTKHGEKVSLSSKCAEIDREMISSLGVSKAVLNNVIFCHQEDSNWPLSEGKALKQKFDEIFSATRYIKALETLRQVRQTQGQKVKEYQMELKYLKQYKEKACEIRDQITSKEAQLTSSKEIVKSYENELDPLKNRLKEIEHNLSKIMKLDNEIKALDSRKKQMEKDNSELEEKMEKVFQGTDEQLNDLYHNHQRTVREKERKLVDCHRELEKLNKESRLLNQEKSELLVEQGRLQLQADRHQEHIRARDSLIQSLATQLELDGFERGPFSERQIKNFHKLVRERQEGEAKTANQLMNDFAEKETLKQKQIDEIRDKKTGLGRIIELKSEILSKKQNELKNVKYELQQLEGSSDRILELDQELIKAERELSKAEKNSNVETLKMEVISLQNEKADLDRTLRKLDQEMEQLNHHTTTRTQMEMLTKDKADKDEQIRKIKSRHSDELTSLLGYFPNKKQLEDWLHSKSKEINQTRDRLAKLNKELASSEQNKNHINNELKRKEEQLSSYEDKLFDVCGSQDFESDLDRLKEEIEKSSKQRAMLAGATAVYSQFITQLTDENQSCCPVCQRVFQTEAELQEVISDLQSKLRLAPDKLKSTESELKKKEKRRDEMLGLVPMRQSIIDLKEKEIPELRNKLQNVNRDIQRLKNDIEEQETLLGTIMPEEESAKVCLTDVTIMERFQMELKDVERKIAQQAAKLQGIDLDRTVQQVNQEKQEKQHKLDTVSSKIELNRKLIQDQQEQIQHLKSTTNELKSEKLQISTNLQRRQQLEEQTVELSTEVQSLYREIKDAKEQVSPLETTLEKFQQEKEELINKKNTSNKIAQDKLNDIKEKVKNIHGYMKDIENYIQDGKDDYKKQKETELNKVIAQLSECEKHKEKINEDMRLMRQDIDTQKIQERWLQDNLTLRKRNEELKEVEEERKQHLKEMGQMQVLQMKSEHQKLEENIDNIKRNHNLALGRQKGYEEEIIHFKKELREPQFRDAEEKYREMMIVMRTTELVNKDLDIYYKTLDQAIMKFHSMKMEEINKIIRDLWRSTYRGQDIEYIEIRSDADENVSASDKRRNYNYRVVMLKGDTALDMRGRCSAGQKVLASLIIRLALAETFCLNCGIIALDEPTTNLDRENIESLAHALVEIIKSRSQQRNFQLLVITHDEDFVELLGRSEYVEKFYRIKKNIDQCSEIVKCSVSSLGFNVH
UniProt Q14676: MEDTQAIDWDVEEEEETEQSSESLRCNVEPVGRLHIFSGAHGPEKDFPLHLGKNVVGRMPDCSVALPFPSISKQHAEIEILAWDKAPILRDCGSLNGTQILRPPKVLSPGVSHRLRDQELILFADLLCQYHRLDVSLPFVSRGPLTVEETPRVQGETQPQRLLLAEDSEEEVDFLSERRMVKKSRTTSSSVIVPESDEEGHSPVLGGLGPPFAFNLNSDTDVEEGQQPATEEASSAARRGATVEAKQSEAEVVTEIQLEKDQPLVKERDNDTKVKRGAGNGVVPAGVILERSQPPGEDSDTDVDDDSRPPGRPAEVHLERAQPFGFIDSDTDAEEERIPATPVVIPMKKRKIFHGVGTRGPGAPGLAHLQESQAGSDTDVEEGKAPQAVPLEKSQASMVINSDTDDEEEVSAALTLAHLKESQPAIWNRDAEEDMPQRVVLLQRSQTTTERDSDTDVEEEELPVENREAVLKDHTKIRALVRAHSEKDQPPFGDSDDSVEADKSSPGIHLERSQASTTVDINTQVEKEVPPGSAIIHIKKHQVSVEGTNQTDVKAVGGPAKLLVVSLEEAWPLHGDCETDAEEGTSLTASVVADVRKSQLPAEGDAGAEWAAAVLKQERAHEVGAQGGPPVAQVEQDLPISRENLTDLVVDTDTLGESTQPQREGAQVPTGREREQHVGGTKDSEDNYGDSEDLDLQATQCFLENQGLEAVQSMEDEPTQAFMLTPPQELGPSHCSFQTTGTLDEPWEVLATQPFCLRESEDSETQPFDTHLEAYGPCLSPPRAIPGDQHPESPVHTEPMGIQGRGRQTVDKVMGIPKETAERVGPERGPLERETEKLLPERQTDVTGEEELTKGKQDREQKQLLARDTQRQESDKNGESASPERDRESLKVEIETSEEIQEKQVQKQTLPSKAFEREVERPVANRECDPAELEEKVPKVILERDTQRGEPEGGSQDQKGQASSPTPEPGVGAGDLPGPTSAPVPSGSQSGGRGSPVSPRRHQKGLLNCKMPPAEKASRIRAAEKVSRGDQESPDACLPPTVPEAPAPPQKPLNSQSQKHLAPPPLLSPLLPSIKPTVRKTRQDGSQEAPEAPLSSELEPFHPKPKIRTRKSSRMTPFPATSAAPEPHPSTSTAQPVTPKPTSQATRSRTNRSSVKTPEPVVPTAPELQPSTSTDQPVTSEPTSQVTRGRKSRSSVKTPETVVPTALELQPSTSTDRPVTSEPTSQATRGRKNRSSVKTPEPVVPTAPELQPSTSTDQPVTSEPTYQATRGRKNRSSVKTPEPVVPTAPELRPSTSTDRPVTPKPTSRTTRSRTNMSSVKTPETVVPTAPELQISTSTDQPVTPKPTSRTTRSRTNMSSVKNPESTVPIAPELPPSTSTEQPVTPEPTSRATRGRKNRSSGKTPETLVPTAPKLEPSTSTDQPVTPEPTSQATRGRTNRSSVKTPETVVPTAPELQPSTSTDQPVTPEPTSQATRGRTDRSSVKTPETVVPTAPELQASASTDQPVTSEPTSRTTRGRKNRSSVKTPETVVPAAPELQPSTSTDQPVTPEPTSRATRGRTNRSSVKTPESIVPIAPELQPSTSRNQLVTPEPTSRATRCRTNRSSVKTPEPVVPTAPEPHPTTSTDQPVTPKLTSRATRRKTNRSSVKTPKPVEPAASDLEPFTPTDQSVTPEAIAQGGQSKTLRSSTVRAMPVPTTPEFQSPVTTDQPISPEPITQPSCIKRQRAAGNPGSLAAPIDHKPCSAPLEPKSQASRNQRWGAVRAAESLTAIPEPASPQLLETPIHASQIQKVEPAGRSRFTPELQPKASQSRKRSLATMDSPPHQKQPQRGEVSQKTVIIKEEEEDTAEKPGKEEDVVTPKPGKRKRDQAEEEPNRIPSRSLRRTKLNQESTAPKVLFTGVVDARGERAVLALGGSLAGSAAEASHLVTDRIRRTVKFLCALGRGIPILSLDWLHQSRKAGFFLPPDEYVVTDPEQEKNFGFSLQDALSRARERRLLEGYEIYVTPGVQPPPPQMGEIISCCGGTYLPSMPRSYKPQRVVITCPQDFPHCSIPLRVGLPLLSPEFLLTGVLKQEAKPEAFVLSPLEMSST

In the experiment the target is T1, FLAG-tagged Treacle (mouse Tcof1, full length) (mouse) (UniProt O08784).
T1 sequence: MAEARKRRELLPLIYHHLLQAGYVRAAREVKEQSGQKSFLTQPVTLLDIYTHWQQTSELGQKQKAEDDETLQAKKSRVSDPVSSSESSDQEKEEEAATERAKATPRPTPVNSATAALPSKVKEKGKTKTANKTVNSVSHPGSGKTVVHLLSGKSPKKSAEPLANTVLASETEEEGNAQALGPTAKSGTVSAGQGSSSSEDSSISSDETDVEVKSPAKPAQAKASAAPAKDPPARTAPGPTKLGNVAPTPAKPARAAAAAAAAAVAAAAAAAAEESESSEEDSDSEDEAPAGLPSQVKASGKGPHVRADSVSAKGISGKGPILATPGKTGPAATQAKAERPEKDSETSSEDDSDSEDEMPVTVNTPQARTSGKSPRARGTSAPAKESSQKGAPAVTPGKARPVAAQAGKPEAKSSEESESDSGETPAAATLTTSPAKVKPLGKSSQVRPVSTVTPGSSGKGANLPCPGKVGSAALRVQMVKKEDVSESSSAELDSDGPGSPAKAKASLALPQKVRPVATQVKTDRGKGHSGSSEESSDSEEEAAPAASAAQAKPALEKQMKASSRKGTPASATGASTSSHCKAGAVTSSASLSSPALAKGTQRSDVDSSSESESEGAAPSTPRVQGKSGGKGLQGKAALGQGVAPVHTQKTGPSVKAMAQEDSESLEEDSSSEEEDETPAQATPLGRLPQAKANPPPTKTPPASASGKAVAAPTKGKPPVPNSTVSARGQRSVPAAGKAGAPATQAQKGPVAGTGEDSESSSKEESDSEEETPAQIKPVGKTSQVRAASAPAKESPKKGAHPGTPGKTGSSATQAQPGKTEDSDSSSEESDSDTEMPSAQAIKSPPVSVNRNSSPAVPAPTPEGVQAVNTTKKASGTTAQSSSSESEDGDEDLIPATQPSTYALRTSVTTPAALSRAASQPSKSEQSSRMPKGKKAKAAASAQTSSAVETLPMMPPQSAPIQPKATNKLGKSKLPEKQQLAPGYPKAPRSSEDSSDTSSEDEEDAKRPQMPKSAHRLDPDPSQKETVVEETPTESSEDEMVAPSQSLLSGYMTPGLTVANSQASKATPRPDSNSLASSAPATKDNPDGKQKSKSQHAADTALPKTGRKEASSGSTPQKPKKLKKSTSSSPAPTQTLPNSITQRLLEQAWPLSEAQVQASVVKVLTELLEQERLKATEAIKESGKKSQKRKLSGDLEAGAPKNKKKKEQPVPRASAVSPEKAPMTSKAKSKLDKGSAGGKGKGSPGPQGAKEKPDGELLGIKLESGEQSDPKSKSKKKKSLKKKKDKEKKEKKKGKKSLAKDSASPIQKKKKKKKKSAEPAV
In words: affinity purification with mass spectrometry; anti-FLAG agarose from lysates of Tcof1/293-FRT and 293-FRT cells (50 mM Tris-HCl pH 7.5, 150 mM NaCl, 1% NP-40, 5 mM EDTA), 4 °C overnight, eluted by FLAG peptide, MudPIT.
As to “endogenous Nbs1 (from UniProt O60934 1-754)”, the binding entry is given as “binds”.

In the case of “endogenous Rad50 (from UniProt Q92878 1-1312)”, the binding result is given as “binds”.

In the case of “endogenous MDC1 (from UniProt Q14676 1-2089)”, the binding entry is reported as “binds”.

Values taken from paper PMC4735750.
